Experimental data: PubChem BioAssay AID602196 (INSERM, 2012)

Test: 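Genes whose knock-down alters cisplatin killing of lung cancer cells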
System: human A549 lung cancer cells
Reagents: siRNA pair against human genes
Duration: 48 h transfection before cisplatin; time from cisplatin to read-out not stated
Treatment: cisplatin at a dose killing half of control-siRNA cells; exact dose and duration not given
Measured: 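Cisplatin cell death as a shift from the 50% death seen with control siRNA; siRNAs toxic or growth-blocking alone scored 0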
Direction: two-siRNA summed score (-2 to +2): higher = both siRNAs protect from cisplatin killing; -2 means both sensitise
Hit rule: 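Each siRNA scores 0 if harmful alone by LDH or WST-1, otherwise +1 if it reduces and -1 if it increases cisplatin killing; a gene is active when both siRNAs agree (sum +2 or -2)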
Meaning of the calls: active = both siRNAs shift cisplatin killing the same way; inactive = no consistent shift, or siRNA harmful alone
Shown is an unselected part of about 23,000 reagents. 455 of them (2%) were called active. 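Active includes both protection and sensitisation; some change values fall well beyond the stated -50 to +50 range.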 A number with no mark means an inactive call. Not all columns of the deposit are shown. Reagent sequences are not shown. The record does not give: the amount of reagent.

The opening 2 records, to show the layout:
{"target": "MAGEB5", "two-siRNA summed score (-2 to +2)": 0}
{"target": "TFPT", "two-siRNA summed score (-2 to +2)": 0}

Results, repeating the preview:
{"target": "MAGEB5", "two-siRNA summed score (-2 to +2)": 0}
{"target": "TFPT", "two-siRNA summed score (-2 to +2)": 0}
{"target": "WDR7", "two-siRNA summed score (-2 to +2)": 0}
{"target": "PDGFRB", "two-siRNA summed score (-2 to +2)": 1}
{"target": "OR6B3", "two-siRNA summed score (-2 to +2)": 1}
{"target": "LUZP1", "two-siRNA summed score (-2 to +2)": 0}
{"target": "LOC144983", "two-siRNA summed score (-2 to +2)": 0}
{"target": "LOC400960", "two-siRNA summed score (-2 to +2)": 0}
{"target": "FNDC11", "two-siRNA summed score (-2 to +2)": 0}
{"target": "SLC36A4", "two-siRNA summed score (-2 to +2)": 0}
{"target": "LOC440368", "two-siRNA summed score (-2 to +2)": 0}
{"target": "MTRR", "two-siRNA summed score (-2 to +2)": 1}
